Test results taken from patent US11324219B2, “Amide compound or salt thereof, agricultural and horticultural microbicide comprising the compound and the salt, and method for using the agricultural and horticultural microbicide” (Nihon Nohyaku Co., Ltd., priority 2018, dated 2022).
Some results were stated once for a whole list of compounds, not compound by compound. Some compounds share one range, which may span the group rather than tell each member.

Assays:
Assay type in all cases: in vivo
[1] = test system: barley powdery mildew (Blumeria graminis hordei); assay: Test for control efficacy on barley powdery mildew; details: foliage of barley plants (Kanto No. 6), 7 days after inoculation
[2] = test system: wheat powdery mildew fungus Blumeria graminis; assay: Test for control efficacy on wheat powdery mildew; details: foliage of wheat plants (Nourin No. 61), 7 days after inoculation
[3] = test system: cucumber powdery mildew (Sphaerotheca cucurbitae); assay: Test for control efficacy on cucumber powdery mildew; details: concentration of 10 ppm; foliage of cucumber plants (Suyo); 8 days after inoculation
[4] = concentration of 50 ppm or less

Structure (SMILES) | control efficacy (activity level) ([1]; concentration of 10 ppm) | control efficacy (activity level) ([1]; concentration of 50 ppm) | control efficacy (activity level) ([2]; concentration of 10 ppm) | control efficacy (activity level) [2, 4] | control efficacy (activity level) [3]
CCCOc1cc(C(F)(F)F)sc1N(C(C)=O)C(=O)c1ccc(C(F)(F)F)cc1S(=O)(=O)CC [Compound 1-8] | 1 (the control rate is 10 to 19%.) | 1 (the control rate is 10 to 19%.) | 1 (the control rate is 10 to 19%.) | 1 (the control rate is 10 to 19%.) | 1 (the control rate is 10 to 19%.)
CCS(=O)(=O)c1cc(C(F)(F)F)ccc1C(=O)Nc1sc(C(F)(F)F)cc1C(=O)OC [Compound 1-14] |  |  |  |  | 1 (the control rate is 10 to 19%.)
CCS(=O)(=O)c1cc(C(F)(F)F)ccc1C(=O)N(C(C)=O)c1sc(C(F)(F)F)cc1C(=O)OC [Compound 1-16] |  | 1 (the control rate is 10 to 19%.) | 1 (the control rate is 10 to 19%.) | 1 (the control rate is 10 to 19%.) | 1 (the control rate is 10 to 19%.)
CCc1sc(C(F)(F)C(F)(F)F)cc1NC(=O)c1ccc(C(F)(F)F)cc1S(=O)(=O)CC [Compound 2-18, N-[2-ethyl-5-(pentafluoroethyl)thiophen-3-yl]-2-(ethylsulfonyl)-4-(trifluoromethyl)benzamide] | 1 (the control rate is 10 to 19%.) |  | 1 (the control rate is 10 to 19%.) | 1 (the control rate is 10 to 19%.) | 1 (the control rate is 10 to 19%.)
CCS(=O)(=O)c1cc(C(F)(F)F)ccc1C(=O)Nc1cc(C(F)(F)C(F)(F)F)oc1C(=O)O [Compound 2-34] |  | 1 (the control rate is 10 to 19%.) |  | 1 (the control rate is 10 to 19%.) | 1 (the control rate is 10 to 19%.)
CCc1oc(C(F)(F)C(F)(F)F)cc1NC(=O)c1ccc(C(F)(F)F)cc1S(=O)(=O)CC [Compound 2-42, N-[2-ethyl-5-(pentafluoroethyl)furan-3-yl]-2-(ethylsulfonyl)-4-(trifluoromethyl)benzamide] | 1 (the control rate is 10 to 19%.) |  |  |  | 1 (the control rate is 10 to 19%.)
CCS(=O)(=O)c1cc(C(F)(F)F)ccc1C(=O)Nc1sc(C(C(F)(F)F)C(F)(F)F)cc1C(=O)OC [Compound 3-2] | 1 (the control rate is 10 to 19%.) | 1 (the control rate is 10 to 19%.) | 1 (the control rate is 10 to 19%.) | 1 (the control rate is 10 to 19%.) | 1 (the control rate is 10 to 19%.)
CCS(=O)(=O)c1cc(C(F)(F)F)ccc1C(=O)N(C(C)=O)c1cc(C(F)(F)C(F)(F)F)sc1-c1ccccc1 [Compound 4-8] | 1 (the control rate is 10 to 19%.) | 1 (the control rate is 10 to 19%.) | 1 (the control rate is 10 to 19%.) | 1 (the control rate is 10 to 19%.) | 1 (the control rate is 10 to 19%.)
CCS(=O)(=O)c1cc(C(F)(F)F)ccc1C(=O)N(C(C)=O)c1cc(Br)sc1C(=O)OC [Compound 4-20] |  | 1 (the control rate is 10 to 19%.) |  |  | 1 (the control rate is 10 to 19%.)
CCS(=O)(=O)c1cc(C(F)(F)F)ccc1C(=O)N(C(C)=O)c1cc(C2CC2)sc1C(=O)OC [Compound 4-24] | 1 (the control rate is 10 to 19%.) | 1 (the control rate is 10 to 19%.) |  | 1 (the control rate is 10 to 19%.) | 1 (the control rate is 10 to 19%.)
CCS(=O)(=O)c1cc(C(F)(F)F)ccc1C(=O)N(C(C)=O)c1cc(C(C)C)sc1C(=O)OC [Compound 4-36] | 1 (the control rate is 10 to 19%.) | 1 (the control rate is 10 to 19%.) | 1 (the control rate is 10 to 19%.) | 1 (the control rate is 10 to 19%.) | 1 (the control rate is 10 to 19%.)
C=C(C)c1cc(N(C(C)=O)C(=O)c2ccc(C(F)(F)F)cc2S(=O)(=O)CC)c(C(=O)OC)s1 [Compound 4-44] |  | 1 (the control rate is 10 to 19%.) |  | 1 (the control rate is 10 to 19%.) | 1 (the control rate is 10 to 19%.)
CCS(=O)(=O)c1cc(C(F)(F)F)ccc1C(=O)N(C(C)=O)c1cc(-c2ccccc2)sc1C(=O)OC [Compound 4-56] |  |  |  | 1 (the control rate is 10 to 19%.) | 1 (the control rate is 10 to 19%.)
CCS(=O)(=O)c1cc(C(F)(F)F)ccc1C(=O)N(C(=O)C1CC1)c1cc(C(F)(F)C(F)(F)F)oc1C(=O)OC [Compound 4-66] |  | 1 (the control rate is 10 to 19%.) |  | 1 (the control rate is 10 to 19%.) | 
CCS(=O)(=O)c1cc(C(F)(F)F)ccc1C(=O)N(C(=O)C(C)(C)C)c1cc(C(F)(F)C(F)(F)F)oc1C(=O)OC [Compound 4-68] |  | 1 (the control rate is 10 to 19%.) |  | 1 (the control rate is 10 to 19%.) | 
CCS(=O)(=O)c1cc(C(F)(F)F)ccc1C(=O)Nc1cc(C(F)(F)C(F)(F)C(F)(F)F)oc1C(=O)OC [Compound 4-72] |  | 1 (the control rate is 10 to 19%.) |  | 1 (the control rate is 10 to 19%.) | 

Structure (SMILES) | control efficacy (activity level) ([1]; concentration of 10 ppm) | control efficacy (activity level) ([1]; concentration of 50 ppm) | control efficacy (activity level) ([2]; concentration of 10 ppm) | control efficacy (activity level) [2, 4] | control efficacy (activity level) [3]
CCS(=O)(=O)c1cc(C(F)(F)F)ccc1C(=O)N(C(C)=O)c1cc(-c2ccccc2)oc1C(=O)OC [Compound 4-78] |  | 1 (the control rate is 10 to 19%.) |  | 1 (the control rate is 10 to 19%.) | 1 (the control rate is 10 to 19%.)
CCOC(=O)c1oc(C(F)(F)C(F)(F)F)cc1NC(=O)c1ccc(C(F)(F)F)cc1S(=O)(=O)CC [Compound 4-84] | 1 (the control rate is 10 to 19%.) | 1 (the control rate is 10 to 19%.) |  | 1 (the control rate is 10 to 19%.) | 
CCOC(=O)c1oc(C(F)(F)C(F)(F)F)cc1N(C(C)=O)C(=O)c1ccc(C(F)(F)F)cc1S(=O)(=O)CC [Compound 4-86] |  | 1 (the control rate is 10 to 19%.) |  | 1 (the control rate is 10 to 19%.) | 
CCS(=O)(=O)c1cc(C(F)(F)F)ccc1C(=O)N(C(C)=O)c1cc(C(C)(C)C)oc1C(=O)OCc1ccccc1 [Compound 4-98] |  | 1 (the control rate is 10 to 19%.) |  | 1 (the control rate is 10 to 19%.) | 1 (the control rate is 10 to 19%.)
CCCc1oc(C(F)(F)C(F)(F)F)cc1N(C(C)=O)C(=O)c1ccc(C(F)(F)F)cc1S(=O)(=O)CC [Compound 4-102] | 1 (the control rate is 10 to 19%.) | 1 (the control rate is 10 to 19%.) |  | 1 (the control rate is 10 to 19%.) | 
CCS(=O)(=O)c1cc(C(F)(F)F)ccc1C(=O)N(C(C)=O)c1cc(C(F)(F)C(F)(F)F)oc1C(=O)N(C)C [Compound 4-106] |  | 1 (the control rate is 10 to 19%.) |  | 1 (the control rate is 10 to 19%.) | 
CCS(=O)(=O)c1cc(C(F)(F)F)ccc1C(=O)N(C(C)=O)c1cc(C(F)(F)C(F)(F)F)oc1-c1ccccc1 [Compound 4-110] |  | 1 (the control rate is 10 to 19%.) |  | 1 (the control rate is 10 to 19%.) | 
CCS(=O)(=O)c1cc(C(F)(F)F)ccc1C(=O)Nc1coc(C(F)(F)C(F)(F)F)c1 [Compound 4-112] | 1 (the control rate is 10 to 19%.) | 1 (the control rate is 10 to 19%.) |  | 1 (the control rate is 10 to 19%.) | 
CCS(=O)(=O)c1cc(C(F)(F)F)ccc1C(=O)N(C(C)=O)c1cc(C(F)(F)C(F)(F)F)oc1-c1ccoc1 [Compound 4-122] |  |  | 1 (the control rate is 10 to 19%.) |  | 1 (the control rate is 10 to 19%.)
CCSc1oc(C(F)(F)C(F)(F)F)cc1NC(=O)c1ccc(C(F)(F)F)cc1S(=O)(=O)CC [Compound 4-124] | 1 (the control rate is 10 to 19%.) |  | 1 (the control rate is 10 to 19%.) |  | 
CCS(=O)(=O)c1cc(C(F)(F)F)ccc1C(=O)N(C(C)=O)c1cc(C(F)(F)C(F)(F)F)oc1S(=O)(=O)CC [Compound 4-130] |  | 1 (the control rate is 10 to 19%.) |  | 1 (the control rate is 10 to 19%.) | 
CCS(=O)(=O)c1cc(C(F)(F)F)ccc1C(=O)Nc1cc(C#CC(C)(C)C)sc1C(=O)OC [Compound 5-46] |  | 1 (the control rate is 10 to 19%.) |  |  | 1 (the control rate is 10 to 19%.)
CCS(=O)(=O)c1cc(C(F)(F)F)ccc1C(=O)Nc1cc(C(=O)C(F)(F)C(F)(F)F)sc1C(=O)OC [Compound 5-62] |  | 1 (the control rate is 10 to 19%.) |  | 1 (the control rate is 10 to 19%.) | 
CCS(=O)(=O)c1cc(C(F)(F)F)ccc1C(=O)N(c1cc(C(F)(F)C(F)(F)F)oc1C(=O)OC)S(C)(=O)=O [Compound 5-67] | 1 (the control rate is 10 to 19%.) | 1 (the control rate is 10 to 19%.) |  | 1 (the control rate is 10 to 19%.) | 
CCS(=O)(=O)c1cc(C(F)(F)F)ccc1C(=O)Nc1c(C(=O)OC)oc(C(F)(F)C(F)(F)F)c1Br [Compound 5-71] |  | 1 (the control rate is 10 to 19%.) |  | 1 (the control rate is 10 to 19%.) | 
